Source: US4933354A, “2-pyrrolidone-5-carboxylic acid compounds useful for the treatment of mental disorders” (Kissei Pharmaceutical Co., Ltd., priority 1987, dated 1990)
At least one structure is not confirmed: it was looked up by name or label, or the drawing left a doubt.

What was measured:
[1] = test system: ECS-induced amnesic mice; assay: One trial passive avoidance task by step-through test (ECS-induced amnesia); format: in vivo, mice (male, dd-strain); conditions: oral, 1 μmole/mouse, 1 hr before training trial; test 24 hr after training
Method: Anti-amnesic effects of the compounds were determined by the following tests. Male mice of dd-strain, weighing 23-30 g, were employed for the experiment, and the test compounds were freshly dissolved in saline and administered orally at a dose of 1 μmole/mouse. (1) One trial passive avoidance task by step-through test A shuttle box composed of a light (7 cm high, 9 cm wide and 15 cm depth) and a dark (12 cm high, 13 cm wide and 15 cm depth) box; the former was lighted using […]-white light fluorescent bar lamp placed at the position of 40 cm from the floor and in the latter the stainless steel floor grids 2.5 mm in diameter were placed at intervals of 4 mm in order to give a foot shock. Both boxes were connected with a gate 3 cm in diameter. As the training trial, each animal was placed in the light box and a foot shock ([…]) was delivered through the floor grid immediately after the animal entered into the dark box, accordingly the animal learned a punishment for the entrance. […] Twenty-four hr after the training trial, the animal was placed again in the light box and step-through (ST) latency, time spent until the animal entered the dark box, was measured. […] The ST-latency on the test trial was measured up to 300 and 600 sec for control and amnesic group, respectively.

[2] = test system: scopolamine-induced amnesic animals; assay: One trial passive avoidance task by step-down method (scopolamine-induced amnesia); format: in vivo, mice (male, dd-strain); conditions: 1 μmole/mouse oral, 1 hr before training trial; scopolamine 1 mg/kg i.p. 30 min before training; test 24 hr after training

SMILES: O=C1CCC(C(=O)NCc2ccccn2)N1 (centres unmarked) [Compound 7, N-(2-Pyridylmethyl)-2-pyrrolidone-5-carboxamide]
- ST-latency in ECS-induced amnesic mice [1]: recovered the shortened ST-latency to the control level
- SD-latency in scopolamine-induced amnesic animals [2]: recovered the shortened SD-latency to the control level
